Source: the supplement of paper PMC7661543
The effect of the compound repeats well; differences between the knockouts mostly do not.

Tested on: SKBR3
Test: relative cell number vs DMSO control (72 h) (% of DMSO); higher = less growth inhibition (more cells)
Experimental: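 QMAP-Seq: a pool of 5 breast cancer cell lines (ZR-75-1, SKBR3, HCC-38, MDA-MB-231, BT-20), each carrying 12 doxycycline-inducible Cas9 sgRNA perturbations (11 knockouts plus non-targeting sgNT), was treated with compounds for 72 h at four 10-fold doses (10 nM-10 uM or 1 nM-1 uM range). Barcodes were amplified and sequenced, and cell number was interpolated from 293T spike-in standard curves. The result is expressed as % of the median of DMSO wells. Two biological replicates.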

CCOC(=O)[C@@]1(CCCCCCOc2ccc(Cl)cc2)CO1 [Etomoxir]
Conditions	relative cell number
sgRNA knockout: sgATF3, 10 nM	95
sgRNA knockout: sgATF3, 100 nM	114
sgRNA knockout: sgATF3, 1000 nM	107
sgRNA knockout: sgATF3, 10000 nM	104
sgRNA knockout: sgATF4, 10 nM	93.4
sgRNA knockout: sgATF4, 100 nM	90.3
sgRNA knockout: sgATF4, 1000 nM	88.3
sgRNA knockout: sgATF4, 10000 nM	88.4
sgRNA knockout: sgATF6, 10 nM	92.9
sgRNA knockout: sgATF6, 100 nM	75.6
sgRNA knockout: sgATF6, 1000 nM	78.9
sgRNA knockout: sgATF6, 10000 nM	80.9
sgRNA knockout: sgATG7, 10 nM	77.6
sgRNA knockout: sgATG7, 100 nM	89.2
sgRNA knockout: sgATG7, 1000 nM	127
sgRNA knockout: sgATG7, 10000 nM	108
sgRNA knockout: sgERN1, 10 nM	80.2
sgRNA knockout: sgERN1, 100 nM	93.3
sgRNA knockout: sgERN1, 1000 nM	107
sgRNA knockout: sgERN1, 10000 nM	103
sgRNA knockout: sgHSF1, 10 nM	99.7
sgRNA knockout: sgHSF1, 100 nM	84.2
sgRNA knockout: sgHSF1, 1000 nM	103
sgRNA knockout: sgHSF1, 10000 nM	79.1
sgRNA knockout: sgHSF2, 10 nM	74.1
sgRNA knockout: sgHSF2, 100 nM	95.9
sgRNA knockout: sgHSF2, 1000 nM	87.9
sgRNA knockout: sgHSF2, 10000 nM	112
sgRNA knockout: sgKEAP1, 10 nM	87.1
sgRNA knockout: sgKEAP1, 100 nM	88.3
sgRNA knockout: sgKEAP1, 1000 nM	98.4
sgRNA knockout: sgKEAP1, 10000 nM	91.6
sgRNA knockout: sgNFE2L2, 10 nM	92.7
sgRNA knockout: sgNFE2L2, 100 nM	94.7
sgRNA knockout: sgNFE2L2, 1000 nM	92.3
sgRNA knockout: sgNFE2L2, 10000 nM	99.6
sgRNA knockout: sgSLC35F2, 10 nM	95.9
sgRNA knockout: sgSLC35F2, 100 nM	97.5
sgRNA knockout: sgSLC35F2, 1000 nM	89.3
sgRNA knockout: sgSLC35F2, 10000 nM	81.9
sgRNA knockout: sgXBP1, 10 nM	97.1
sgRNA knockout: sgXBP1, 100 nM	94.9
sgRNA knockout: sgXBP1, 1000 nM	111
sgRNA knockout: sgXBP1, 10000 nM	81.5

COc1cc([C@@H]2c3cc4c(cc3[C@@H](O[C@@H]3O[C@@H]5CO[C@@H](C)O[C@H]5[C@H](O)[C@H]3O)[C@H]3COC(=O)[C@H]23)OCO4)cc(OC)c1O [Etoposide]
Conditions	relative cell number
sgRNA knockout: sgATF3, 10 nM	71.8
sgRNA knockout: sgATF3, 100 nM	68.6
sgRNA knockout: sgATF3, 1000 nM	26
sgRNA knockout: sgATF3, 10000 nM	18.1
sgRNA knockout: sgATF4, 10 nM	55.8
sgRNA knockout: sgATF4, 100 nM	69.6
sgRNA knockout: sgATF4, 1000 nM	26.6
sgRNA knockout: sgATF4, 10000 nM	14.3
sgRNA knockout: sgATF6, 10 nM	61
sgRNA knockout: sgATF6, 100 nM	63.7
sgRNA knockout: sgATF6, 1000 nM	30.1
sgRNA knockout: sgATF6, 10000 nM	8.206
sgRNA knockout: sgATG7, 10 nM	72.77
sgRNA knockout: sgATG7, 100 nM	61.8
sgRNA knockout: sgATG7, 1000 nM	25
sgRNA knockout: sgATG7, 10000 nM	15.2
sgRNA knockout: sgERN1, 10 nM	59.7
sgRNA knockout: sgERN1, 100 nM	75.3
sgRNA knockout: sgERN1, 1000 nM	23.9
sgRNA knockout: sgERN1, 10000 nM	8.42
sgRNA knockout: sgHSF1, 10 nM	54.6
sgRNA knockout: sgHSF1, 100 nM	68.3
sgRNA knockout: sgHSF1, 1000 nM	27.8
sgRNA knockout: sgHSF1, 10000 nM	9.83
sgRNA knockout: sgHSF2, 10 nM	56.1
sgRNA knockout: sgHSF2, 100 nM	74.3
sgRNA knockout: sgHSF2, 1000 nM	37.1
sgRNA knockout: sgHSF2, 10000 nM	15.2
sgRNA knockout: sgKEAP1, 10 nM	58.7
sgRNA knockout: sgKEAP1, 100 nM	69.1
sgRNA knockout: sgKEAP1, 1000 nM	20.5
sgRNA knockout: sgKEAP1, 10000 nM	11.6
sgRNA knockout: sgNFE2L2, 10 nM	59.1
sgRNA knockout: sgNFE2L2, 100 nM	65
sgRNA knockout: sgNFE2L2, 1000 nM	26.5
sgRNA knockout: sgNFE2L2, 10000 nM	11.6
sgRNA knockout: sgSLC35F2, 10 nM	68.4
sgRNA knockout: sgSLC35F2, 100 nM	74.3
sgRNA knockout: sgSLC35F2, 1000 nM	32.9
sgRNA knockout: sgSLC35F2, 10000 nM	10.11
sgRNA knockout: sgXBP1, 10 nM	39.6
sgRNA knockout: sgXBP1, 100 nM	62.8
sgRNA knockout: sgXBP1, 1000 nM	28.9
sgRNA knockout: sgXBP1, 10000 nM	13.1

CO[C@H]1C[C@@H]2CC[C@@H](C)[C@@](O)(O2)C(=O)C(=O)N2CCCC[C@H]2C(=O)O[C@H]([C@H](C)C[C@@H]2CC[C@@H](OCCO)[C@H](OC)C2)CC(=O)[C@H](C)/C=C(\C)[C@@H](O)[C@@H](OC)C(=O)[C@H](C)C[C@H](C)/C=C/C=C/C=C/1C [Everolimus]
Conditions	relative cell number
sgRNA knockout: sgATF3, 1 nM	82.3
sgRNA knockout: sgATF3, 10 nM	59.7
sgRNA knockout: sgATF3, 100 nM	61.4
sgRNA knockout: sgATF3, 1000 nM	62.4
sgRNA knockout: sgATF4, 1 nM	79.6
sgRNA knockout: sgATF4, 10 nM	68.5
sgRNA knockout: sgATF4, 100 nM	62.3
sgRNA knockout: sgATF4, 1000 nM	65.4
sgRNA knockout: sgATF6, 1 nM	65.5
sgRNA knockout: sgATF6, 10 nM	81.2
sgRNA knockout: sgATF6, 100 nM	65.91
sgRNA knockout: sgATF6, 1000 nM	73.5
sgRNA knockout: sgATG7, 1 nM	70.7
sgRNA knockout: sgATG7, 10 nM	61.26
sgRNA knockout: sgATG7, 100 nM	59.7
sgRNA knockout: sgATG7, 1000 nM	71
sgRNA knockout: sgERN1, 1 nM	63.7
sgRNA knockout: sgERN1, 10 nM	68.5
sgRNA knockout: sgERN1, 100 nM	80.4
sgRNA knockout: sgERN1, 1000 nM	64
sgRNA knockout: sgHSF1, 1 nM	72.22
sgRNA knockout: sgHSF1, 10 nM	68.4
sgRNA knockout: sgHSF1, 100 nM	70
sgRNA knockout: sgHSF1, 1000 nM	58.6
sgRNA knockout: sgHSF2, 1 nM	65.3
sgRNA knockout: sgHSF2, 10 nM	73.4
sgRNA knockout: sgHSF2, 100 nM	56.9
sgRNA knockout: sgHSF2, 1000 nM	65.3
sgRNA knockout: sgKEAP1, 1 nM	68.8
sgRNA knockout: sgKEAP1, 10 nM	56
sgRNA knockout: sgKEAP1, 100 nM	59.8
sgRNA knockout: sgKEAP1, 1000 nM	66.5
sgRNA knockout: sgNFE2L2, 1 nM	58.9
sgRNA knockout: sgNFE2L2, 10 nM	47.7
sgRNA knockout: sgNFE2L2, 100 nM	71
sgRNA knockout: sgNFE2L2, 1000 nM	75
sgRNA knockout: sgSLC35F2, 1 nM	71.5
sgRNA knockout: sgSLC35F2, 10 nM	66.9
sgRNA knockout: sgSLC35F2, 100 nM	66.8
sgRNA knockout: sgSLC35F2, 1000 nM	70.9
sgRNA knockout: sgXBP1, 1 nM	74
sgRNA knockout: sgXBP1, 10 nM	56.2
sgRNA knockout: sgXBP1, 100 nM	71.2
sgRNA knockout: sgXBP1, 1000 nM	75.3
